Reference: article PMC6547726, “Advanced FRET normalization allows quantitative analysis of protein interactions including stoichiometries and relative affinities in living cells” (Scientific Reports, 2019)
Results are given in words; binding and its absence hold for the method and conditions named. Binding seen in cells or lysates may run through a third protein. Some binding calls cover weakened binding; strength is not graded here. Tags and fused reporters may be left off the sequences shown.

Target: T1, YFP-tagged IKKα (UniProt O15111 1-745)
T1 construct: IKKα, IKK subunit α of the NF-kappaB pathway; FRET donor; also called IKK subunit α; source: HeLa cells (clone ACC 57), transfected, in living cells
T1 sequence (looked up): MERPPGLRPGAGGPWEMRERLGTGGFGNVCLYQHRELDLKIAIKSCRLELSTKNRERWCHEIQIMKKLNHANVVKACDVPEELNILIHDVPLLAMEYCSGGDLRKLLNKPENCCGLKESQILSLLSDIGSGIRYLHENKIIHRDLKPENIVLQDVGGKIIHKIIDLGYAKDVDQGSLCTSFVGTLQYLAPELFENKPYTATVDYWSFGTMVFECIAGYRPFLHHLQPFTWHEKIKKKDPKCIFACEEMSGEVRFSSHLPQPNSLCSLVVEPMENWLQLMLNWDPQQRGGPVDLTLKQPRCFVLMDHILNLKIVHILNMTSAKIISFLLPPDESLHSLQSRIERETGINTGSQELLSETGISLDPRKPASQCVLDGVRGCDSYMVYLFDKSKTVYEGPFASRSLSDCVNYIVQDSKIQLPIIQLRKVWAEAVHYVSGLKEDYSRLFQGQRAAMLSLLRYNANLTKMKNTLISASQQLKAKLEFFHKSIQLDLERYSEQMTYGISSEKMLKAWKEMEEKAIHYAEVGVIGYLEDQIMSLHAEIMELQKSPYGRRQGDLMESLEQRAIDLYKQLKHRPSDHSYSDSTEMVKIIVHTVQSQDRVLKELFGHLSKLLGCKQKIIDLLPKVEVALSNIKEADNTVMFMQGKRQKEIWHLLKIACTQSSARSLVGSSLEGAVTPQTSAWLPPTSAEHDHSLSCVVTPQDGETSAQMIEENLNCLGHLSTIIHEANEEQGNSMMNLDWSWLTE
Test: FRET or BRET; 3-filter (sensitized emission) FRET by laser scanning confocal microscopy of living transfected HeLa cells; donor YFP, acceptor mCherry; FRET^C, N_FRET and DFRET of single cells over acceptor to donor ratios

B1: mCherry-tagged IKKβ (natural protein, UniProt O14920 1-756, looked up)
chain: MSWSPSLTTQTCGAWEMKERLGTGGFGNVIRWHNQETGEQIAIKQCRQELSPRNRERWCLEIQIMRRLTHPNVVAARDVPEGMQNLAPNDLPLLAMEYCQGGDLRKYLNQFENCCGLREGAILTLLSDIASALRYLHENRIIHRDLKPENIVLQQGEQRLIHKIIDLGYAKELDQGSLCTSFVGTLQYLAPELLEQQKYTVTVDYWSFGTLAFECITGFRPFLPNWQPVQWHSKVRQKSEVDIVVSEDLNGTVKFSSSLPYPNNLNSVLAERLEKWLQLMLMWHPRQRGTDPTYGPNGCFKALDDILNLKLVHILNMVTGTIHTYPVTEDESLQSLKARIQQDTGIPEEDQELLQEAGLALIPDKPATQCISDGKLNEGHTLDMDLVFLFDNSKITYETQISPRPQPESVSCILQEPKRNLAFFQLRKVWGQVWHSIQTLKEDCNRLQQGQRAAMMNLLRNNSCLSKMKNSMASMSQQLKAKLDFFKTSIQIDLEKYSEQTEFGITSDKLLLAWREMEQAVELCGRENEVKLLVERMMALQTDIVDLQRSPMGRKQGGTLDDLEEQARELYRRLREKPRDQRTEGDSQEMVRLLLQAIQSFEKKVRVIYTQLSKTVVCKQKALELLPKVEEVVSLMNEDEKTVVRLQEKRQKELWNLLKIACSKVRGPVSGSPDSMNASRLSQPGQLMSQPSTASNSLPEPAKKSEELVAEAHNLCTLLENAIQDTVREQDQSFTALDWSWLQTEEEEHSCLEQAS
notes: IKKβ, IKK subunit β of the NF-kappaB pathway; FRET acceptor; also called IKK subunit β; source: HeLa cells (clone ACC 57), transfected, in living cells
binding: binds
